Measured values published in PubChem BioAssay AID662 (National Center for Advancing Translational Sciences (NCATS), 2007).
The other results are listed elsewhere or left out. Shown are side measurements of this screen, not its main read-out; they come without a call. Compounds called inactive in the main read-out are mostly missing here. Words in brackets tell the shape of the fitted curve; partial curves, single points and poor fits give uncertain potencies.

assay: Cell signaling CRE-BLA (Fsk stim); details: CHO CRE-bla reporter (cAMP response element driving beta-lactamase), forskolin EC10, beta-lactamase ratio; measured here: 460 nm blue channel
Outline: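 Modulation of forskolin signalling: compounds in titration series added with EC10 NKH 477 to CHO cells carrying a CRE-driven beta-lactamase reporter, 3 h, 37C. CCF4 FRET ratio (460/530 nm, ex 405 nm) gives %activity and AC50.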

Row | SMILES | AC50
1 | COCCn1c(=O)c(-c2cccs2)nc2cnc(Oc3ccccc3)nc21 | 12.6 µM [rising, partial curve]
2 | Cc1cccc(NC(=O)CSc2nnc(-c3cc(C)n(-c4ccccc4)c3C)o2)c1C | 0.126 µM [falling, full curve, poor fit]
3 | CCn1c(=S)sc2nc(C)sc21 | 12.6 µM [rising, single point]
4 | OC(CCN1CCOCC1)(c1ccc(Cl)cc1)C1CCCCC1 (stereo not drawn) | 0.251 µM [falling, partial curve]
5 | CCOC(=O)c1c(C)[nH]c(C(=O)COC(=O)c2cnc(C)cn2)c1C | 20 µM [rising, single point]
6 | CC(C)Oc1cccc(-n2c(CCc3c[nH]c4ccc(Br)cc34)nc3ccccc3c2=O)c1 | 0.158 µM [rising, full curve, poor fit]
7 | Cc1cccc(NC(=O)C2CCCN(S(=O)(=O)c3cccc4cccnc34)C2)c1 (stereo not drawn) | 25.1 µM [falling, single point]
8 | O=C(Cn1c(=O)n(CCC(=O)N2CCc3ccccc3C2)c(=O)c2ccccc21)NCC1CCCO1 (stereo not drawn) | 15.8 µM [rising, single point]
9 | CCc1nc(SCC(=O)Nc2nccs2)c2oc3ccccc3c2n1 | 1.26 µM [rising, full curve]
10 | Cc1ccc(NC(=O)NC(=O)CN2C(=O)NC3(CCc4ccccc43)C2=O)c(C)c1 (stereo not drawn) | 5.01 µM [falling, single point]
11 | CCOc1cc(NC(=O)c2ccco2)c(OCC)cc1NC(=O)c1cc(OC)c(OC)c(OC)c1 | 1.26 µM [rising, partial curve]
12 | CCSc1nnc(NC(=O)c2ccco2)s1 | 0.00398 µM [falling, full curve, poor fit]
13 | O=C(NCc1ccccc1)N1CCN(c2ccccc2F)CC1 | 10 µM [falling, partial curve]
14 | CCOC(=O)/C=c1\s/c(=C\c2ccccc2OC)c(=O)n1CC(=O)N1CCOCC1 | 2 µM [rising, full curve]
15 | CS(=O)(=O)Nc1cccc(-c2nc(NC3CC3)c3ccccc3n2)c1 | 5.01 µM [rising, partial curve]
16 | CCn1cc(C(=O)NCC2CCCO2)c(=O)c2cc(S(=O)(=O)N3CCCCCC3)ccc21 (stereo not drawn) | 5.01 µM [falling, single point]
17 | CCc1ccc(NC(=O)c2cc(C(C)C)on2)cc1 | 0.00316 µM [falling, full curve, poor fit]
18 | COc1ccc(-c2nc(NC(=O)CSc3nnc(C)s3)ns2)cc1 | 3.98 µM [falling, partial curve]

Some of the entries so far, comma-delimited.
Row,SMILES,AC50
11,CCOc1cc(NC(=O)c2ccco2)c(OCC)cc1NC(=O)c1cc(OC)c(OC)c(OC)c1,"1.26 µM [rising, partial curve]"
12,CCSc1nnc(NC(=O)c2ccco2)s1,"0.00398 µM [falling, full curve, poor fit]"
